Assay results published in article PMC7272611.
No constants are given. Whether binding was seen depends on the method and setting. Binding seen in cells or lysates may run through a third protein. Here binding means that the protein was enriched with, or labelled near, the bait; the list need not be complete. Each block holds one molecule with its values, some of them ahead of it.

Chains of the proteins cited; added tags and fusions are not shown. Lines headed by an entry give the natural chain unless they say otherwise; changes in a name come on top.
UniProt Q8SWX0: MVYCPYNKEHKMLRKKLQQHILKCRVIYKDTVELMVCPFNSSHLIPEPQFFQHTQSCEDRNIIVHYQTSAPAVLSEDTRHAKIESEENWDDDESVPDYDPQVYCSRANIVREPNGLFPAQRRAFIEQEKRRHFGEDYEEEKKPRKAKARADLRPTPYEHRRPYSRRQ
UniProt O97159: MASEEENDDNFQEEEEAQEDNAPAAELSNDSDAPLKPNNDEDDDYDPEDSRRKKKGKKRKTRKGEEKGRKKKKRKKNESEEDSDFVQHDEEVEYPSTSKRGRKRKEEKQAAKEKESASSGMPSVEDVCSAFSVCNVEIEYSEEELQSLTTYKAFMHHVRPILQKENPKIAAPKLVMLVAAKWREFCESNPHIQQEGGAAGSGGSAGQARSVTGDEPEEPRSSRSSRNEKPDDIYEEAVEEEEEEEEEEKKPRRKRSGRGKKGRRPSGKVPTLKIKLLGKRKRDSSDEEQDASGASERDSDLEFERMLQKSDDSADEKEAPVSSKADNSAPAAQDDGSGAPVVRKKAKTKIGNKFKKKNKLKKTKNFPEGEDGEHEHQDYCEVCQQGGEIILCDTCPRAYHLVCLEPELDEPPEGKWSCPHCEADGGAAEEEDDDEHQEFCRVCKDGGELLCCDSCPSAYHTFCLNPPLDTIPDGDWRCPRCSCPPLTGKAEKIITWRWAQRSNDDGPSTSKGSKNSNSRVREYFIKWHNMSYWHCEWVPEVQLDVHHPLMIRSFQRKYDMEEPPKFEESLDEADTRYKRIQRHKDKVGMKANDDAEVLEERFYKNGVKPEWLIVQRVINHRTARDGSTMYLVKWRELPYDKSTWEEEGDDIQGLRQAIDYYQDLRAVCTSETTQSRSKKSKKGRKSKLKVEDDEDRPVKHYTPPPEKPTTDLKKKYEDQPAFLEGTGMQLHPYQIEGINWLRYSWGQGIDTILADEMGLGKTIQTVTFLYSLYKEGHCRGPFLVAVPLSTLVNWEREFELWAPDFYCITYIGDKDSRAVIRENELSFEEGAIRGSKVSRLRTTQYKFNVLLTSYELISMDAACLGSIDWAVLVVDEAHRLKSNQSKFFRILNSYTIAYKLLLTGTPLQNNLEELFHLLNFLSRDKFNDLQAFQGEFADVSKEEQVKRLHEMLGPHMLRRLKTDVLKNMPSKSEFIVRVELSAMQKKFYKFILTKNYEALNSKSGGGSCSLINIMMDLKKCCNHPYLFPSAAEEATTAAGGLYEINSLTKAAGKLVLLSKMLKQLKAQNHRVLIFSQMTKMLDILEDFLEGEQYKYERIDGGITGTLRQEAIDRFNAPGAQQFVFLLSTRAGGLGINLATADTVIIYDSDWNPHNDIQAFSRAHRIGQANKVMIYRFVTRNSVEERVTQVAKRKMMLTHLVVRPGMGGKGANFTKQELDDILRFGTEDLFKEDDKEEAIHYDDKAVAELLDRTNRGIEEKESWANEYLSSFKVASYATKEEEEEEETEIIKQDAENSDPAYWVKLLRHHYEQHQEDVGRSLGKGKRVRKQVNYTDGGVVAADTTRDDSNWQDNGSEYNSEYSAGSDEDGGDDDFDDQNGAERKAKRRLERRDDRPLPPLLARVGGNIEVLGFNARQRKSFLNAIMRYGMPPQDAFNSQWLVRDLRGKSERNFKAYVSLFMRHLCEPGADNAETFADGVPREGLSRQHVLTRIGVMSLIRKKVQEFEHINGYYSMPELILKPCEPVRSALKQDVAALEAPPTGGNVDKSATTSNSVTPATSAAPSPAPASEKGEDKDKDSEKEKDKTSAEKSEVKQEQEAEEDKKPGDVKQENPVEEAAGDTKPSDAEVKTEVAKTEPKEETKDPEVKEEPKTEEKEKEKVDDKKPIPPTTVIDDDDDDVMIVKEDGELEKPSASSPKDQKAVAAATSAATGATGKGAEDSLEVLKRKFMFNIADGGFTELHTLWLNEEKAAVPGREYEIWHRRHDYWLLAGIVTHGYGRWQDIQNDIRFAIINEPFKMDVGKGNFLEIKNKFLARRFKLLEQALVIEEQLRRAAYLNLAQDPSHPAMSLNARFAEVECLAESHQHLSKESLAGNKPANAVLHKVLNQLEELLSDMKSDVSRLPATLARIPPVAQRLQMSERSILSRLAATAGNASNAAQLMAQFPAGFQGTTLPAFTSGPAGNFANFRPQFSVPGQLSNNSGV
UniProt Q94517: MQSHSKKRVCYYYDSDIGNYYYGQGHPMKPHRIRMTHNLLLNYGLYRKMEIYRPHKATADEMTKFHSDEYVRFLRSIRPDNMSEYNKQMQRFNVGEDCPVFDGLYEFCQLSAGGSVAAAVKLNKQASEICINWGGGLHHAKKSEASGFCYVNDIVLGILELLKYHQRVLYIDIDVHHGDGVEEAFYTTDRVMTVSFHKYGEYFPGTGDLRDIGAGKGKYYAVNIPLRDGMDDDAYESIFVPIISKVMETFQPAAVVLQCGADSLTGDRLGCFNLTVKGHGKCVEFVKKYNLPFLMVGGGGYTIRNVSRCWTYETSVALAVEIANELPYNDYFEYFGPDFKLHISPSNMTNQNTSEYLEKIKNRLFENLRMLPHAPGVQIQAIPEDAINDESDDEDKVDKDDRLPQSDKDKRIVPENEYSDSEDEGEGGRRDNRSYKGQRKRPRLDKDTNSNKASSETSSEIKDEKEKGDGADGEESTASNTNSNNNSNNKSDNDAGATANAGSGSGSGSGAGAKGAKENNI

Target: GST-Gtsf1 (Drosophila) (UniProt Q8SWX0)
Experiment: affinity purification with mass spectrometry; pulldown with recombinant GST-Gtsf1 as bait in nuclear lysates of cultured OSCs, GST as control, followed by mass spectrometry; only the target purified

binding: binds
Molecule: Mi-2 (from UniProt O97159 1-1982)

binding: binds
Molecule: Rpd3 (from UniProt Q94517 1-521)

binding: binds
B1: Piwi (protein, UniProt Q9VKM1 1-843)
chain: MADDQGRGRRRPLNEDDSSTSRGSGDGPRVKVFRGSSSGDPRADPRIEASRERRALEEAPRREGGPTERKPWGDQYDYLNTRPAELVSKKGTDGVPVMLQTNFFRLKTKPEWRIVHYHVEFEPSIENPRVRMGVLSNHANLLGSGYLFDGLQLFTTRKFEQEITVLSGKSKLDIEYKISIKFVGFISCAEPRFLQVLNLILRRSMKGLNLELVGRNLFDPRAKIEIREFKMELWPGYETSIRQHEKDILLGTEITHKVMRTETIYDIMRRCSHNPARHQDEVRVNVLDLIVLTDYNNRTYRINDVDFGQTPKSTFSCKGRDISFVEYYLTKYNIRIRDHNQPLLISKNRDKALKTNASELVVLIPELCRVTGLNAEMRSNFQLMRAMSSYTRMNPKQRTDRLRAFNHRLQNTPESVKVLRDWNMELDKNVTEVQGRIIGQQNIVFHNGKVPAGENADWQRHFRDQRMLTTPSDGLDRWAVIAPQRNSHELRTLLDSLYRAASGMGLRIRSPQEFIIYDDRTGTYVRAMDDCVRSDPKLILCLVPNDNAERYSSIKKRGYVDRAVPTQVVTLKTTKNRSLMSIATKIAIQLNCKLGYTPWMIELPLSGLMTIGFDIAKSTRDRKRAYGALIASMDLQQNSTYFSTVTECSAFDVLANTLWPMIAKALRQYQHEHRKLPSRIVFYRDGVSSGSLKQLFEFEVKDIIEKLKTEYARVQLSPPQLAYIVVTRSMNTRFFLNGQNPPPGTIVDDVITLPERYDFYLVSQQVRQGTVSPTSYNVLYSSMGLSPEKMQKLTYKMCHLYYNWSGTTRVPAVCQYAKKLATLVGTNLHSIPQNALEKKFYYL
